One molecule from PMC3962104 can be followed below.

This assay addresses T1, S. cerevisiae Ump1, C-terminally 6His-tagged (wild type) (S. cerevisiae), P38293.
T1 chain: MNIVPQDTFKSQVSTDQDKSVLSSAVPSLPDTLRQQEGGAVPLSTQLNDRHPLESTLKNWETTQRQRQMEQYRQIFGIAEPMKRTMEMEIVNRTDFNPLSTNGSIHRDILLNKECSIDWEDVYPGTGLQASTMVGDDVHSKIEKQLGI
The experiment in a line: SEC; Superdex 75, 50 mM Tris pH 7.5, 100 mM NaCl; calibrated with aprotinin, ribonuclease A, chymotrypsinogen and ovalbumin; apparent molecular masses; both purified. As to conditions: remark: other sources report otherwise.

Results are given in words; binding and its absence hold for the method and conditions named. Some binding calls cover weakened binding; strength is not graded here. Tags and fused reporters may be left off the sequences shown.

B1: S. cerevisiae Ump1, C-terminally 6His-tagged (wild type), P38293 1-148 (natural protein)
chain: T1 chain
In the case of B1, the binding result is on record as “binds”.
